Assay [1] relates to Saccharomyces cerevisiae HF7c pdr5Δ. Briefly: general growth inhibition of yeast HF7c pdr5Δ in -Leu -Trp medium, relative to DMSO; higher = stronger general growth inhibition. The note with it: 100 µM; 24 h.
Assay [2] concerns human PEX3-PEX19 interaction (yeast two-hybrid). Description: growth inhibition of yeast two-hybrid strain reporting HsPex3-HsPex19 interaction, relative to DMSO; higher = stronger inhibition of human Pex3-Pex19 interaction / growth. The settings on record: 100 µM; 24 h; 3-aminotriazole 10 mM.
Assay [3] deals with T. brucei Pex3-Pex19 interaction (yeast two-hybrid). Description: growth inhibition of yeast two-hybrid strain reporting TbPex3-TbPex19 interaction, relative to DMSO; higher = stronger inhibition of T. brucei Pex3-Pex19 interaction / growth. The settings on record: 100 µM; 24 h.

Where a name gives a salt, the structure may show the parent alone. This is one part of the list. Single values of this set are uncertain.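 Yeast growth was measured as optical density at 600 nm. Two-hybrid strains grew without histidine, so growth depended on Pex3–Pex19 binding. A compound was trypanosome-selective if it reduced growth of the trypanosome-pair strain by over 65% and of the human-pair strain by under 65%.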

`CCc1cccc2c3c([nH]c12)C(CC)(CC(=O)O)OCC3` (stereo not given) [Etodolac]: the general growth inhibition in assay [1] was found to be 3.67%. The growth inhibition in assay [2] amounted to 17.4%; in assay [3], 31.3%.

In assay [1], `NCCc1c[nH]cn1` [Histamine dihydrochloride] came in with a general growth inhibition of 39.9%. For the same compound, the figures for the growth inhibition in assay [2] and in assay [3] were 45.6% and 65.2%, respectively.

`O=C(Nc1cccc(C(=O)Nc2ccc(S(=O)(=O)O)c3cc(S(=O)(=O)O)cc(S(=O)(=O)O)c23)c1)Nc1cccc(C(=O)Nc2ccc(S(=O)(=O)O)c3cc(S(=O)(=O)O)cc(S(=O)(=O)O)c23)c1` yielded a general growth inhibition in assay [1] of 35%. The growth inhibition in assay [2] was found to be 35.6%; in assay [3], 55%.

Compound `COc1cc2nc(N3CCCN(C)CC3)nc(NC3CCN(Cc4ccccc4)CC3)c2cc1OC` yielded a general growth inhibition in assay [1] of 41.9%. Besides, the figures for the growth inhibition in assay [2] and in assay [3] were 35.1% and 57.2%, respectively.

`O=C(Nc1nc2ccccc2n1CCN1CCOCC1)c1cccc([N+](=O)[O-])c1` [IRAK-1/4 Inhibitor I]: the general growth inhibition in assay [1] was 18.8%. The growth inhibition in assay [2] was -4.05%; in assay [3] it was 39.8%.

For `CN1C2CCCC1CC(NC(=O)c1nn(C)c3ccccc13)C2` (stereo not given) [Granisetron hydrochloride], the general growth inhibition in assay [1] amounted to 52.4%. In addition, the growth inhibition turned out to be 46.2% in assay [2] and 63.5% in assay [3].

The compound `C#CC(N)CCC(=O)O` (stereo not given) [gamma-Acetylinic GABA] yielded a general growth inhibition in assay [1] of 34.7%. The growth inhibition came to 52.7% in assay [2] and 66.1% in assay [3].

In turn, `CN(C)C(=O)C(CCN1CCC(O)(c2ccc(Cl)cc2)CC1)(c1ccccc1)c1ccccc1` [Loperamide hydrochloride] displayed a general growth inhibition in assay [1] of 31.4%. The growth inhibition turned out to be 36.3% in assay [2] and 66.9% in assay [3].

For the compound `O=c1c2ccccc2nc2n1CCc1c-2[nH]c2ccccc12` [Rutaecarpine], the general growth inhibition in assay [1] came out at 36.6%. In addition, the growth inhibition in assay [2] came to 20.7%; in assay [3] it was 28.6%.

Turning to `COc1cc(NS(C)(=O)=O)ccc1Nc1c2ccccc2nc2ccccc12` [Amsacrine hydrochloride], the general growth inhibition in assay [1] turned out to be 32.3%. Moreover, the growth inhibition in assay [2] amounted to 21.8%; in assay [3] it was 51.4%.

Source of the values: the supplement of paper PMC8326762, “A Small Molecule Inhibitor of Pex3–Pex19 Interaction Disrupts Glycosome Biogenesis and Causes Lethality in Trypanosoma brucei” (Frontiers in Cell and Developmental Biology, 2021).
